In assay [1] the target is CSK29544_02616 product (Labp) expressed from pKT25 (C. sakazakii). Nature of the assay: two-hybrid; bacterial adenylate cyclase-based two-hybrid (BACTH) in E. coli BTH101, pKT25 and pUT18C fusions, β-galactosidase activity in Miller units.
The target in assay [2] is GST-CSK29544_02616 (C. sakazakii). Nature of the assay: pull-down; GST pull-down: cells producing His-LpxA and GST-CSK29544_02616 mixed 1:1 and lysed together in IP150 buffer (50 mM Tris-HCl pH 7.4, 150 mM NaCl, 2 mM MgCl2, 0.1% NP-40); GSH-agarose beads, 4 °C, 3 h; immunoblot with anti-GST and anti-His.

These are yes or no findings as the source states them, for the method shown. A result given as binding can be weak or reduced; the word gives no strength. For part of these data: In cells and extracts the contact can be indirect. For part of these data: Where a sequence is shown, tags or fusion partners need not be part of it.

B1: LpxA expressed from pUT18C (enzyme, UniProt A7MI18 1-262)
chain: MIDKTAFIHPTAIVEEGAVIGANAHIGPFCIVGPDVKIGEGTVLKSHVVVNGHTTIGRDNEIYQFASIGEVNQDLKYAGEPTRVEIGDRNRIRESVTIHRGTAQGGGLTKVGSDNLLMINAHVAHDCTVGNRCILANNATLAGHVSVDDFAIIGGMTAVHQFCIIGAHVMVGGCSGVAQDVPPYVIAQGNHATPFGVNIEGLKRRGFSKEALHAIRNAYKLLYRSGKTLDEVKPEIAEIAAKHPEVQPFYDFFARSTRGLIR
For B1, the binding entry in assay [1] is “binds”.

B2: His-LpxA (enzyme, UniProt A7MI18 1-262)
chain: B1 chain
On to B2, for which the binding result in assay [2] is on record as “binds”.

B3: LpxD expressed from pUT18C (enzyme, UniProt A7MGT5 1-341)
chain: MPSIRLADLARQLDAELHGDGDIAITGVASMQSAQEGQITFMVNPRYREQLAHCQASAVVMTEADLPFANSAALVVKNPYLTYARMAQILDTTPQPASSIAPSAVIDASARLGNNVAVGANAVIESGVELGDNVVIGPGCFVGKNSKLGAGTRLWANVSIYHDIQIGENCLIQSSTVIGADGFGYANDRGNWVKIPQLGRVIIGDRVEIGACTTIDRGALDDTIIGNGVIIDNQCQIAHNVVIGDNTAVAGGVIMAGSLKIGRYCMIGGASVINGHMEICDKVTVTGMGMVMRPITEPGVYSSGIPLQPNKVWRKTAALVMNIDEMNKRLKAVERKVTQQD
With B3, in assay [1], the binding entry is reported as “no binding”.

The values are drawn from PMC5770445.
